Measured values from US20200300849A1.
No constants are given. Whether binding was seen depends on the method and setting. Some results given as binding are weak or reduced against the parent protein; the word gives no strength.

Legend:
[1] = molecular target: T1, tetraspanin CD9 on exosomes in mouse bronchoalveolar lavage fluid (mouse) (UniProt P40240); assay: dynamic light scattering of mouse BALF exosomes mixed with nanoplatform, 298K
T1 sequence (looked up): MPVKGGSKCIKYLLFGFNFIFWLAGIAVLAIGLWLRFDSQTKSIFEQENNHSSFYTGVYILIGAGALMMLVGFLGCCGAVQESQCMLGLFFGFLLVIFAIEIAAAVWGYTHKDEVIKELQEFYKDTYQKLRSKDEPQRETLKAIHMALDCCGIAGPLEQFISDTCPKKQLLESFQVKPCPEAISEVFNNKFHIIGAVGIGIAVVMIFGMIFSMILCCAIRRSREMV

[2] = molecular target: T1, tetraspanin CD9 on exosomes in mouse bronchoalveolar lavage fluid (mouse); assay: electrical impedance spectroscopy, Bode phase plot
[3] = molecular target: T1, tetraspanin CD9 on exosomes in mouse bronchoalveolar lavage fluid (mouse); assay: dynamic light scattering, hydrodynamic diameter vs. time
[4] = molecular target: T2, tetraspanin CD63 on exosomes in mouse bronchoalveolar lavage fluid (mouse) (UniProt P41731); assay: dynamic light scattering of mouse BALF exosomes mixed with nanoplatform, 298K
T2 sequence (looked up): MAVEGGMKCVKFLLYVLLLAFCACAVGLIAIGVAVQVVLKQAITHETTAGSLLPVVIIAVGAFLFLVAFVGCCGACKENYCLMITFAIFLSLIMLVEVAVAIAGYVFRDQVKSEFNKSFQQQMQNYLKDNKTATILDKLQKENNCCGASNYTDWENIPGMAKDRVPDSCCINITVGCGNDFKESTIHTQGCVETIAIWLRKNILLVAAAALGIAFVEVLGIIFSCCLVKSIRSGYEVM

[5] = molecular target: T2, tetraspanin CD63 on exosomes in mouse bronchoalveolar lavage fluid (mouse); assay: electrical impedance spectroscopy, Bode phase plot
[6] = molecular target: T2, tetraspanin CD63 on exosomes in mouse bronchoalveolar lavage fluid (mouse); assay: dynamic light scattering, hydrodynamic diameter vs. time

Measured: binding

VQEFYKDTYNKLKTK (attached to Fe/Fe3O4 nanoparticle (75+/-5 peptide aptamers per nanoplatform)) [Fe/Fe3O4-nanoplatform bearing peptide aptamers for binding of the tetraspanin CD9 (…, SEQ ID NO:34)]
binds: [1] | [2] | [3]

LNNHTASILNRMQANF (attached to Fe/Fe3O4 nanoparticle (75+/-5 peptide aptamers per nanoplatform)) [Fe/Fe3O4-nanoplatform bearing peptide aptamers for binding of the tetraspanin CD63 (…, SEQ ID NO:35)]
binds: [4] | [5] | [6]
